No constants are given. Whether binding was seen depends on the method and setting. Binding seen in cells or lysates may run through a third protein. Here binding means that the protein was enriched with, or labelled near, the bait; the list need not be complete. Sequences can lack the tags named with a protein.

The chains behind the UniProt entries cited, without tags or fusion partners.
UniProt O96017: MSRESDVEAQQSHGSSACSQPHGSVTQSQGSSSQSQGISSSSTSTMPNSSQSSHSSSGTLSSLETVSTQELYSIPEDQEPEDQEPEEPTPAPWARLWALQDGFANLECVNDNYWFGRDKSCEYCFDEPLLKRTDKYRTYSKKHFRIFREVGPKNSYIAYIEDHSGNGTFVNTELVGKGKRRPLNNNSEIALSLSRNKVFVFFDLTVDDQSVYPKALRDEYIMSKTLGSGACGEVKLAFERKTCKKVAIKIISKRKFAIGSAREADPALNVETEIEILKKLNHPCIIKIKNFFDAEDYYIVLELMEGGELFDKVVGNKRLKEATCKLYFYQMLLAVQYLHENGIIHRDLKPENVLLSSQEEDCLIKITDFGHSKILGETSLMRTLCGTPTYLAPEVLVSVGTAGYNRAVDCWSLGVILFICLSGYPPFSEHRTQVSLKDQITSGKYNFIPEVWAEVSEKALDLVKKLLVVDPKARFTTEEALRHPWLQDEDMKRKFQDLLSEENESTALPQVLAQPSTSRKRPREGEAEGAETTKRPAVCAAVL

This assay deals with T1, Flag-tagged OGT (O-GlcNAc transferase) (UniProt O15294).
T1 sequence: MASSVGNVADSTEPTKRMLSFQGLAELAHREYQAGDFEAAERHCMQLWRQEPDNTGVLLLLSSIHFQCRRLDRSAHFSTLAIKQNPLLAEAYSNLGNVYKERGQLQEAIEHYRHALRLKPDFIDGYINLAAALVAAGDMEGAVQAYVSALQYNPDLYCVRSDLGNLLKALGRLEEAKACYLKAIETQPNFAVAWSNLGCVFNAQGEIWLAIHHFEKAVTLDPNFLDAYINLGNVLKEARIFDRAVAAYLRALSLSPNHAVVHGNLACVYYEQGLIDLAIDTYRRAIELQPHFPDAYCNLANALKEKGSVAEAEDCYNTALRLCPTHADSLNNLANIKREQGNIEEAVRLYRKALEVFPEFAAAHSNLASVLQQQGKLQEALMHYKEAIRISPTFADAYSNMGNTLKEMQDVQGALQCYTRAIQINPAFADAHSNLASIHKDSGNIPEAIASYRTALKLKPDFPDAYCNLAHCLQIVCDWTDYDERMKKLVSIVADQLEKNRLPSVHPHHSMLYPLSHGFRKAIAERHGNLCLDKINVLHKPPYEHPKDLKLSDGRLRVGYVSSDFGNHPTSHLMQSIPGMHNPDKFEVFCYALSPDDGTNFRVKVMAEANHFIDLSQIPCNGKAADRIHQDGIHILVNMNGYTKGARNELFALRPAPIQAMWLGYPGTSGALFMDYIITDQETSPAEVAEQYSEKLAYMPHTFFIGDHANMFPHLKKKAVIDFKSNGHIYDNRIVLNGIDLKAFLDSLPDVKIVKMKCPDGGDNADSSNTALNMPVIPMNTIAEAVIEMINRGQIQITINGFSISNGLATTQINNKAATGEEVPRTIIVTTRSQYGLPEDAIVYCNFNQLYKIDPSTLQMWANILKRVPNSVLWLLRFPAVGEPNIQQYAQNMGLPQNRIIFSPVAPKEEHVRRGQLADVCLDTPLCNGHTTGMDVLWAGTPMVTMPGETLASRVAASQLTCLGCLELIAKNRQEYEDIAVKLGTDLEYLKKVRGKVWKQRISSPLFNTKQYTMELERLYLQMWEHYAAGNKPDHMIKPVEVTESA
Put plainly: affinity purification with mass spectrometry.

“checkpoint kinase 2 (CHK2), endogenous (from UniProt O96017 1-543)”: the binding result was “binds”.

These data come from paper doi:10.1101/2020.08.06.240739.
